Our source for the survivor count and T/C values is PubChem BioAssay AID330 (DTP/NCI, 2004).

The list is a part of this screen's results and no random one: it gathers tests that were run many times, whatever their T/C, doses with no T/C, and many T/C values between a quarter and a half above the control. Further doses and runs are listed elsewhere. T/C gives the treated animals as a percentage of the vehicle group. Some entries give survivors of the animals treated and no T/C: the source files T/C as zero there, which appears to mark a toxic dose or a test without result, not a measured value. Some survivor counts are full or nearly so, which does not show that the dose was tolerated: the source hardly ever lists a survival T/C far under the control, and the zero likely stands for such cases as well. Counts of survivors are from the toxicity check (mostly the fifth day) where no day follows; animals may have died later. Schedule codes are those of the source, taken here to give the interval after Q, in days (D) or hours (H), and the number of doses after X. Some entries were tested several times; the results are listed from low to high. For survival time, this PubChem deposit counts one and a half times the control or more as active, and values a quarter to a half above the control carry no call in these data; other NCI protocols may use other cut-offs. Some T/C values carry the count of animals alive at the toxicity check (mostly the fifth day); where none is given, no animal had died by that day.

The assay deals with P388 leukemia ip, CD2F1 mice, survival T/C. The assay is described as follows: NCI In Vivo Anticancer Drug Screen. Data for tumor model P388 Leukemia (intraperitoneal) in CD2F1 (CDF1) mice. The settings on record: T/C endpoint: median survival time, higher T/C = longer survival.
Where [1] appears, read: dose: 100.0 mg/kg/injection, schedule: Q01DX005 (ip), vehicle: saline with Tween-80.
Setting [2] is: dose: 200.0 mg/kg/injection, schedule: Q01DX009 (ip), vehicle: saline with Tween-80.
Setting [3] is: dose: 400.0 mg/kg/injection, schedule: Q01DX009 (ip), vehicle: saline with Tween-80.
[4] abbreviates: dose: 100.0 mg/kg/injection, schedule: Q01DX009 (ip), vehicle: saline.
Setting [5] is: dose: 200.0 mg/kg/injection, schedule: Q01DX009 (ip), vehicle: saline.
Where [6] appears, read: dose: 200.0 mg/kg/injection, schedule: Q01DX005 (ip), vehicle: Klucel (hydroxypropylcellulose) (HPC).
Where [7] appears, read: dose: 25.0 mg/kg/injection, schedule: Q01DX009 (ip), vehicle: saline with Tween-80.
The mark [8] stands for this setting: dose: 50.0 mg/kg/injection, schedule: Q01DX009 (ip), vehicle: saline with Tween-80.
Where [9] appears, read: dose: 100.0 mg/kg/injection, schedule: Q01DX009 (ip), vehicle: saline with Tween-80.
Setting [10] is: dose: 200.0 mg/kg/injection, schedule: Q01DX005 (ip), vehicle: saline with Tween-80.

Consider `CCN1CCCC(Nc2cc(C)nc(/N=C(/N)Nc3ccc(Cl)c(Cl)c3)n2)C1` (configuration not stated), for which the survivor count was 6 of 6 (dose: 25.0 mg/kg/injection, schedule: Q01DX009 (ip), vehicle: water); 1 of 6 and 4 of 6 (dose: 50.0 mg/kg/injection, schedule: Q01DX009 (ip), vehicle: water); 0 of 6 (dose: 100.0 mg/kg/injection, schedule: Q01DX009 (ip), vehicle: water); 0 of 6 (dose: 200.0 mg/kg/injection, schedule: Q01DX009 (ip), vehicle: water).
For `O=C(Nc1cccc2nsnc12)c1ccc(C(=O)Nc2cccc3nsnc23)cc1`, the survivor count by setting is: (dose: 3.75 mg/kg/injection, schedule: Q01DX005 (ip), vehicle: Klucel (hydroxypropylcellulose) (HPC)) 6 of 6; (dose: 7.5 mg/kg/injection, schedule: Q01DX005 (ip), vehicle: Klucel (hydroxypropylcellulose) (HPC)) 6 of 6; (dose: 15.0 mg/kg/injection, schedule: Q01DX005 (ip), vehicle: Klucel (hydroxypropylcellulose) (HPC)) 6 of 6; (dose: 60.0 mg/kg/injection, schedule: Q01DX005 (ip), vehicle: Klucel (hydroxypropylcellulose) (HPC)) 6 of 6; (dose: 120.0 mg/kg/injection, schedule: Q01DX005 (ip), vehicle: Klucel (hydroxypropylcellulose) (HPC)) 6 of 6.
With `S=C(NNc1nnc(-c2ccccc2)c(-c2ccccc2)n1)Nc1ccc(Br)cc1`, the survivor count was 6 of 6 (dose: 50.0 mg/kg/injection, schedule: Q01DX005 (ip), vehicle: saline with Tween-80) and 6 of 6 under setting [1].
As to `O=[N+]([O-])c1ccc2c(N=Nc3ccc4ccccc4c3O)c(O)cc(S(=O)(=O)O)c2c1`, the survivor count is listed as 5 of 6 under setting [2] and 3 of 6 under setting [3].
`O=C(O)c1cc(I)cc(I)c1`: the survivor count (dose: 300.0 mg/kg/injection, schedule: Q01DX009 (ip), vehicle: saline with Tween-80) is 3 of 6.
Turning to `COC1/C=C/OC2(C)Oc3c(C)c(O)c4c(O)c(c(/C=N/N5CC(C)(C)N(Cc6ccccc6)CC5(C)C)c(O)c4c3C2=O)NC(=O)C(C)=C/C=C/C(C)C(O)C(C)C(O)C(C)C(OC(C)=O)C1C` (configuration not stated), the survivor count under setting [2] is 6 of 6.
As for `OC1(c2ccccc2)CCCCCC1`, the survivor count was 2 of 6 under setting [2] and 0 of 6 under setting [3].
Consider `O=C1NC(=O)C2(CCCC2=Nc2ccc(Br)cc2)C2C=CN(Cc3ccccc3)C=C12` (configuration not stated), for which the survivor count (dose: 400.0 mg/kg/injection, schedule: Q04DX003 (ip), vehicle: saline) is 3 of 6.
`CC1NC(=O)C(NC(=O)c2cnc3ccccc3n2)COC(=O)C(C(C)C)N(C)C(=O)C2CSSCC(C(=O)N(C)C(C(C)C)C(=O)OCC(NC(=O)c3cnc4ccccc4n3)C(=O)NC(C)C(=O)N2C)N(C)C1=O` (configuration not stated): the T/C (dose: 12.5 micrograms/kg/injection, schedule: Q01DX009 (ip), vehicle: water) was 132 % of control. The survivor count (dose: 200.0 micrograms/kg/injection, schedule: Q01DX009 (ip), vehicle: water) is 5 of 6.
Turning to `COc1ccc(OCC2CN(C)CCC2c2ccccc2)cc1` (configuration not stated), the survivor count was 6 of 6 under setting [4] and 0 of 6 under setting [5].
With `CCOC(=O)/C(C#N)=C(/SC)N1CC1`, the survivor count (dose: 100.0 mg/kg/injection, schedule: Q01DX009 (ip), vehicle: Klucel (hydroxypropylcellulose) (HPC)) was 3 of 5 and the survivor count (dose: 200.0 mg/kg/injection, schedule: Q01DX009 (ip), vehicle: Klucel (hydroxypropylcellulose) (HPC)) is 0 of 4.
`O=C(Cc1ccc(OCc2ccccc2)cc1)NCc1ccc2c(c1)OCO2`: the survivor count runs as follows: (dose: 60.0 mg/kg/injection, schedule: Q01DX005 (ip), vehicle: saline with Tween-80) 6 of 6; (dose: 120.0 mg/kg/injection, schedule: Q01DX005 (ip), vehicle: saline with Tween-80) 5 of 6; (dose: 240.0 mg/kg/injection, schedule: Q01DX005 (ip), vehicle: saline with Tween-80) 6 of 6.
With `O=C(/C(=C(/[O-])C(F)(F)F)[n+]1ccc2ccccc2c1)C(F)(F)F`, the survivor count (dose: 100.0 mg/kg/injection, schedule: Q01DX001 (ip), vehicle: saline with Tween-80) is on record as 6 of 6.
`O=C1NC(=O)C2(OC3c4ccccc4C=NN3C3=C2C(=O)CCC3)C(=O)N1` (configuration not stated): under “dose: 240.0 mg/kg/injection, schedule: Q01DX005 (ip), vehicle: Klucel (hydroxypropylcellulose) (HPC)”, the survivor count is recorded as 6 of 6.
As to `CCCCN(CCCC)CCCOC(=O)c1ccc2oc3ccc(C(=O)OCCCN(CCCC)CCCC)cc3c2c1`, the survivor count under setting [2] is 2 of 6.
Consider `CN=C(Nc1ccccn1)c1ccc(NC(=O)c2ccc(C(=O)Nc3ccc(C(=NC)Nc4ccccn4)cc3)cc2)cc1`, for which, under setting [6], the survivor count is given as 1 of 6.
For `O=P(c1ccccc1)(c1ccccc1)c1ccccc1.O=P(c1ccccc1)(c1ccccc1)c1ccccc1.O=P(c1ccccc1)(c1ccccc1)c1ccccc1.O=P(c1ccccc1)(c1ccccc1)c1ccccc1.[O-][Cl+3]([O-])([O-])O.[O]=[U+2]=[O]`, the survivor count is given as 4 of 6 under setting [7], 1 of 6 under setting [8], 0 of 6 under setting [9] and 0 of 6 under setting [2].
Take `Cc1cccc(-c2nc3c(C)nc(-c4ccccc4)nc3n2Nc2ccccc2)c1`: the survivor count runs as follows: (dose: 200.0 mg/kg/injection, schedule: Q01DX001 (ip), vehicle: Klucel (hydroxypropylcellulose) (HPC)) 6 of 6; (dose: 400.0 mg/kg/injection, schedule: Q01DX001 (ip), vehicle: Klucel (hydroxypropylcellulose) (HPC)) 6 of 6.
On to `CCCCC(CC)CN1CN2CN(CC(CC)CCCC)CC2(C)C1` (configuration not stated), for which the survivor count is listed as 4 of 6 under setting [1] and 0 of 6 under setting [10].
With `C=CCNC(=S)N/N=C/c1nccc(-c2ccccc2)c1C`, the survivor count is listed as 6 of 6 (dose: 6.25 mg/kg/injection, schedule: Q01DX009 (ip), vehicle: saline with Tween-80); 6 of 6 under setting [8]; 1 of 6 under setting [9]; 0 of 6 under setting [2]. Besides, the T/C is 126 and 130 % of control (dose: 12.5 mg/kg/injection, schedule: Q01DX009 (ip), vehicle: saline with Tween-80); 132 % of control under setting [7].
Take `COc1cc(C2c3cc4c(cc3OC(C)(O)C2C)OCO4)cc(OC)c1OC` (configuration not stated): the T/C by setting is: under setting [1], 125 % of control [5 of 6 alive]; (dose: 200.0 mg/kg/injection, schedule: Q01DX005 (ip), vehicle: saline) 141 % of control. Further, the survivor count under setting [10] is 3 of 6.
Take `CN(C)C=Nc1ccc(Cl)cc1`: the survivor count was 0 of 6 under setting [9] and 0 of 6 under setting [2].
Turning to `COc1ccc(CCN2C(=O)CSC2=S)cc1OC`, the survivor count under setting [3] is 4 of 6.
Turning to `CN(C)CCC[N+](C)(C)Cc1ccc(C[N+](C)(C)CCC[N+](C)(C)Cc2ccc(CCl)cc2)cc1`, the survivor count is, setting by setting: (dose: 50.0 mg/kg/injection, schedule: Q01DX009 (ip), vehicle: saline) 0 of 6; under setting [4], 0 of 6; under setting [5], 0 of 6.
On to `CC12CCC(O)CC1CCC1C2CCC2(C)C(c3ccc(=O)oc3)CCC12O` (configuration not stated), for which the survivor count (dose: 5.0 mg/kg/injection, schedule: Q01DX009 (ip), vehicle: saline with Tween-80) was 3 of 6.
Take `Cc1cn(CCCOc2c3occc3cc3ccc(=O)oc23)c(=O)[nH]c1=O`: the survivor count (dose: 100.0 mg/kg/injection, schedule: Q01DX005 (ip), vehicle: Klucel (hydroxypropylcellulose) (HPC)) is 4 of 6 and the survivor count under setting [6] was 6 of 6.
